Experimental data as given in PMC6624373.
No constants are given. Whether binding was seen depends on the method and setting. In cells and extracts the contact can be indirect. Some results given as binding are weak or reduced against the parent protein; the word gives no strength.

By UniProt entry, the sequences of proteins in these tests, tags left out. Residues count along the entry.
UniProt P48679, residues 1-647: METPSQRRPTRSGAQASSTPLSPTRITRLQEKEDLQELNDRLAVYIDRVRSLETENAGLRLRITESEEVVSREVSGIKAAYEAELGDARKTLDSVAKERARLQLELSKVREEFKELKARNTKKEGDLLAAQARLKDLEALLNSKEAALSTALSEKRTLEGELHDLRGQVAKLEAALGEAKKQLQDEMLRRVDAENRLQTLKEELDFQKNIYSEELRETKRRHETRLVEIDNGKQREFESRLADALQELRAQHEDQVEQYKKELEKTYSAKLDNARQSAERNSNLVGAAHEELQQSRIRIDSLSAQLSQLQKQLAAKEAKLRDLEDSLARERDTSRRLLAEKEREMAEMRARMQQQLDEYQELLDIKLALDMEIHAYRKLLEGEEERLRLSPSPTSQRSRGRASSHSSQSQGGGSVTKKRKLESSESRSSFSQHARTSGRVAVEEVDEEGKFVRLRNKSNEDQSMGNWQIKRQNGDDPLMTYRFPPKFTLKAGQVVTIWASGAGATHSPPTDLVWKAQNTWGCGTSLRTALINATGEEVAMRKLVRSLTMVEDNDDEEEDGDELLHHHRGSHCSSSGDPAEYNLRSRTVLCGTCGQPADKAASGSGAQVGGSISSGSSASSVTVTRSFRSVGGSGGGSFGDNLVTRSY

Molecular target: lamin A of rat liver nuclear envelopes (rat) (UniProt P48679)
Assay: cross-linking; ex vivo: rat liver nuclear envelopes in NaPi buffer, EDC/S-NHS 1:2.2 at twofold and fourfold weight excess over protein, 30 min; Western blot and LC-MS/MS

binding: binds
Substance: lamin A of rat liver nuclear envelopes (from UniProt P48679 1-647)
